Test [1] deals with T1, G1 (LONG STERILE LEMMA1), full length, yeast two-hybrid fusion (rice (Oryza sativa)) (UniProt Q8GVZ6).
T1 sequence: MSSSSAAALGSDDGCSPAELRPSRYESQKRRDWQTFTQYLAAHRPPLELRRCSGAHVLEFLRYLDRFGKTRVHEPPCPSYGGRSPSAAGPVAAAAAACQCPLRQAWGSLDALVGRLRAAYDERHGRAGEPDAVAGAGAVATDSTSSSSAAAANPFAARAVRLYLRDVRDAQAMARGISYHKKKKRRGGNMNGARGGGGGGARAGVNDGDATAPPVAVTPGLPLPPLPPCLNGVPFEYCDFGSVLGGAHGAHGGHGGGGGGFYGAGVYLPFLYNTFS
As to the kind of experiment: two-hybrid; yeast AH109; pGBKT7 (Gal4 DNA-binding domain) and pGADT7 fusions; empty pGBKT7 and pGADT7 as negative controls.

By UniProt entry, the sequences of proteins in these tests, tags left out.
UniProt Q6Q9H6: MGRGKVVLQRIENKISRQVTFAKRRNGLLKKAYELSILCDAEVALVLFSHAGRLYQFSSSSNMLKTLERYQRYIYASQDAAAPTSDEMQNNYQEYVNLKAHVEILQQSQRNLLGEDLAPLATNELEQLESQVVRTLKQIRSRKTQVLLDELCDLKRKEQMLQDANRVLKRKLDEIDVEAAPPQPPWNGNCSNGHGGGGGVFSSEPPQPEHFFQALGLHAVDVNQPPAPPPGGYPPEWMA
UniProt Q10PZ9: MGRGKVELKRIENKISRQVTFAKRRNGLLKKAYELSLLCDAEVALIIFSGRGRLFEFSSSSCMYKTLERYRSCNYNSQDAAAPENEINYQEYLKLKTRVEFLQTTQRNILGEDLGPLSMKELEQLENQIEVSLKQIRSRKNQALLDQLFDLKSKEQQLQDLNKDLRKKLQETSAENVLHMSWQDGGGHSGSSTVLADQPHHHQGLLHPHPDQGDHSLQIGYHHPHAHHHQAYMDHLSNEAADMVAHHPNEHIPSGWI

Test [2] addresses T2, G1^170–276, yeast two-hybrid fusion (rice (Oryza sativa)) (UniProt Q8GVZ6).
T2 sequence: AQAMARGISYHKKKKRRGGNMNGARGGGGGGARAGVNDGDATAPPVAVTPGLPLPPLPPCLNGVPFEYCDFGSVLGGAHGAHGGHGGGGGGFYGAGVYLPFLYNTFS
Described as above.

Test [3] deals with OsMADS34, yeast two-hybrid fusion (rice (Oryza sativa)) (UniProt Q6Q9H6). Described as above.
For test [4], the target named is T1, G1 (LONG STERILE LEMMA1), full length, yeast two-hybrid fusion (rice (Oryza sativa)). The test is described as above. The source holds these as a separate data set.
Test [5] concerns the target G1, BiFC fusion (cYFP-G1 and nYFP-G1) (rice (Oryza sativa)) (UniProt Q8GVZ6). As to the kind of experiment: split reporter; BiFC with nYFP and cYFP fusions expressed in N. benthamiana leaves; YFP fluorescence by confocal microscopy.
Test [6] concerns the target OsMADS1, BiFC fusion (cYFP-OsMADS1 and nYFP-OsMADS1) (rice (Oryza sativa)) (UniProt Q10PZ9). The test is described as above.
Test [7] deals with T3, GST-G1 (rice (Oryza sativa)) (UniProt Q8GVZ6).
T3 sequence: T1 sequence
The experiment in a line: pull-down; GST pull-down in vitro; GST fusion as bait, His-G1 as prey; proteins expressed in E. coli BL21 Rosetta; immunoblot with anti-GST or anti-His. For orientation: A western blot detects proteins with antibodies after separation by electrophoresis.

Test [8] deals with GST-OsMADS1 (rice (Oryza sativa)) (UniProt Q10PZ9). The description is as above.

Where two headings read alike, the source gives them in different places. No constants are given. Whether binding was seen depends on the method and setting. For part of these data: Binding seen in cells or lysates may run through a third protein. Some entries that bind do so weakly or less than the wild type. Where a sequence is shown, tags or fusion partners need not be part of it.

For the molecule “OsMADS1, yeast two-hybrid fusion (from UniProt Q10PZ9 1-257)”, the binding entry in test [1] and in test [2] was “binds” in each case.

B1: G1 (LONG STERILE LEMMA1), full length, yeast two-hybrid fusion (protein, UniProt Q8GVZ6 1-276)
chain: T1 sequence
In the case of B1, the values for the binding result in test [3] and in test [4] were “no binding” and “binds”, respectively.

B2: G1, BiFC fusion (cYFP-G1 and nYFP-G1) (protein, UniProt Q8GVZ6 1-276)
chain: T1 sequence
For B2, the binding entry in test [5] and in test [6] was “binds” each time.

B3: His-G1 (protein, UniProt Q8GVZ6 1-276)
chain: T1 sequence
Consider B3, for which the binding result in test [7] and in test [8] was “binds” each time.

B4: G1^170–276, yeast two-hybrid fusion (domain or fragment, UniProt Q8GVZ6 170-276)
chain: T2 sequence
B4: in test [3], the binding result is given as “no binding”.

The record behind these values is paper PMC10892649.
